At least one compound was matched to its structure with a doubt left.
Columns and labels:
ASCs [1] = test: Monolayer osteogenic differentiation of ASCs (Alizarin Red S, calcium quantification); type: cell-based, human; settings: 1 ng/mL FGF-2; dexamethasone 0 nM to 10 nM
Procedure: Vascular medium (VM) consisted of: Endothelial Basal Medium-2 (Lonza), 6% FBS, 1% penicillin/streptomycin, 10 ng/mL VEGF165, 1 ng/mL FGF-2, and 1 μg/mL L-ascorbic acid-2-phosphate (Sigma). For monolayer osteogenic differentiation experiments, control medium consisted of low glucose DMEM (GIBCO Invitrogen), 6% FBS, and 1% penicillin/streptomycin; Osteogenic Medium (OM) consisted of control medium plus 10 mM β-glycerophosphate (Sigma) and 50 μM L-ascorbic acid-2-phosphate. For osteogenic differentiation in fibrin gels, OM also included 10 ng/mL VEGF165 and 1 ng/mL FGF-2 to support vascular viability. […]
For monolayer experiments, ASCs were seeded at 5000 cells/cm^2 and cultured in either control medium or OM for 21 days, with the addition of either PDGF-BB or PDGF receptor inhibitor tyrphostin AG1295 (Santa Cruz Biotechnology). Mineralization was assessed via Alizarin Red S staining and quantification of calcium content. […] Mineralization was assessed via quantification of calcium content normalized to DNA content. […] To quantify calcium content in each sample, monolayers or whole fibrin gels were washed twice with PBS and then incubated with 0.5 N HCl overnight at 4° C. with agitation. Calcium content in the sample supernatants was quantified using a colorimetric Calcium LiquiColor Test (Stanbio). […]

ASCs [2] = test: Vascular morphogenesis of fibrin-encapsulated ASC spheroids in vascular medium; type: cell-based, human; settings: medium optimization with dexamethasone and FGF-2
Procedure: Cells were trypsinized and resuspended at a concentration of 400,000 cells/mL (this concentration varied in the aggregation study where different cluster sizes were being compared) in culture medium containing 0.24% (w/v) methylcellulose (Sigma). The cell suspension was pipetted as 10 μL drops onto inverted Petri dish caps, which were then reverted and placed on dish bottoms containing sterile water to reduce evaporation. Dishes were incubated at 37° C. overnight to allow cellular aggregation at the air-liquid interface. The dish caps were then flooded with PBS to allow bulk collection and transfer of the spheroids to conical tubes.
Settled spheroid pellets were resuspended in fibrinogen (8 mg/mL final; Sigma), followed by the addition of thrombin (2.5 U/mL final; Sigma) to initiate gelation. […]
Confocal z-stacks of immunostained gels were z-projected and thresholded for subsequent quantification of vessel network parameters (n=6 images per group). Thresholded images were analyzed with AngioQuant software, Niemisto A., et al., IEEE Trans Med Imaging 24, 549-53, 2005, to quantify total vessel length, area, and interconnectivity. ImageJ software (NIH) was used to quantify pericyte coverage of vessels, which was defined as αSMA+ area within at least 5 μm of the abluminal face of vessel networks. […]

## C[C@@H]1C[C@H]2[C@@H]3CCC4=CC(=O)C=C[C@]4(C)[C@@]3(F)[C@@H](O)C[C@]2(C)[C@@]1(O)C(=O)CO [dexamethasone, reference compound]
ASCs [1]
  calcium deposition in osteogenic cultures: significantly greater calcium deposition
ASCs [2]
  pericyte coverage in vascular cultures: increasing pericyte coverage
  vessel network growth / length in vascular cultures: substantially inhibited vessel network growth
